Data published in the supplement of paper PMC12823440, “Inhibitors supercharge kinase turnover through native proteolytic circuits” (Nature, 2025).
The list shows a part of the results. Hit calls seldom repeat between salt and free forms of one compound.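 Kinases, fused to nanoluciferase, were expressed in K562 cells; luminescence was measured every 4 h from 2 to 18 h as percent of control (DMSO = 100%, positive control = 0%). A time point is decreased if signal falls significantly (2 sigma). Hits were called by the authors by a rule that is not shown; the count of time points alone does not decide it.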

Amino acid sequences for entries named in this document (tags omitted). A change or cut given only in a name is not applied to a line headed by its entry.
UniProt Q9UQM7, whole entry: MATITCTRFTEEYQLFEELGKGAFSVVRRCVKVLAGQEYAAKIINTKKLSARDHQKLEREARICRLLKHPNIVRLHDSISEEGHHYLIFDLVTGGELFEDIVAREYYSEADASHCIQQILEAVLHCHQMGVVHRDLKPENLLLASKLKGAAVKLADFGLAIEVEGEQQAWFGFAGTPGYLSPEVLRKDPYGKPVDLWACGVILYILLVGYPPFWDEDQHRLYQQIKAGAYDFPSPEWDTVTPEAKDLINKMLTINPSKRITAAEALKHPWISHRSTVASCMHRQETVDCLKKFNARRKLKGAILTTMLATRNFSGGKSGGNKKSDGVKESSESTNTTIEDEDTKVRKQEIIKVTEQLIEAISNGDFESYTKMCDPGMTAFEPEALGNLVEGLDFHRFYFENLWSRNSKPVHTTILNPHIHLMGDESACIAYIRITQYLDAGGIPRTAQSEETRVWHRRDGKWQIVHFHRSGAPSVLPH
UniProt Q13555: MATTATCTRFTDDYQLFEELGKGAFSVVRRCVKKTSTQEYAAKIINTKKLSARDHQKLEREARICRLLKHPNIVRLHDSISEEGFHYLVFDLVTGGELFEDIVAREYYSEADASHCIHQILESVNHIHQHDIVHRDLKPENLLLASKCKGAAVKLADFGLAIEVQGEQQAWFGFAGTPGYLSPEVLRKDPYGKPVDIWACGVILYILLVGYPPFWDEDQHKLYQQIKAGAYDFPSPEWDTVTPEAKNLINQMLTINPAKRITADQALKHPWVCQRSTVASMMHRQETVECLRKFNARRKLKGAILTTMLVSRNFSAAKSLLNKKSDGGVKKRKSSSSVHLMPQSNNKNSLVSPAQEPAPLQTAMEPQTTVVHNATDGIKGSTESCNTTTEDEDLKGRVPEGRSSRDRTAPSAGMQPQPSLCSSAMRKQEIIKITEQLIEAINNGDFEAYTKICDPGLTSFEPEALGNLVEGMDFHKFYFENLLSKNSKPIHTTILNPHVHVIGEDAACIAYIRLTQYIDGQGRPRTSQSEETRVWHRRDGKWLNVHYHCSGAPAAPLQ
UniProt Q15131: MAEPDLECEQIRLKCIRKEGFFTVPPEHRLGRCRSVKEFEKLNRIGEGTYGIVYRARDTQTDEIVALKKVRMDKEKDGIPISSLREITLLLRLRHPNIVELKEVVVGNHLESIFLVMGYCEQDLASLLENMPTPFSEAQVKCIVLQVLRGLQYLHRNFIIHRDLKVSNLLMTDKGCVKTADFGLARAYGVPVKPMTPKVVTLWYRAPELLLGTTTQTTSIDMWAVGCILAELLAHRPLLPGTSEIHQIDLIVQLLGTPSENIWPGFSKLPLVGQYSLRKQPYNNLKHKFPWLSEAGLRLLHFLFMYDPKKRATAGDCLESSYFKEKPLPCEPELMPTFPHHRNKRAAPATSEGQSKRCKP
UniProt Q00526: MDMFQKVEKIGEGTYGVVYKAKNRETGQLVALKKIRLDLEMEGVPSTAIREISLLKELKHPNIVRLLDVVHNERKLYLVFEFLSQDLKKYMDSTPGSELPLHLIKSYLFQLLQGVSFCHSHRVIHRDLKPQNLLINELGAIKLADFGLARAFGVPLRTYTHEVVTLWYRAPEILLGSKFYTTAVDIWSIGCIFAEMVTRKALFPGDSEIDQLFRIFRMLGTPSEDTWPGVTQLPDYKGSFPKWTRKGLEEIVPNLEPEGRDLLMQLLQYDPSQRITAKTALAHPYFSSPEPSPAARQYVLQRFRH
UniProt Q00535, whole entry, looked up: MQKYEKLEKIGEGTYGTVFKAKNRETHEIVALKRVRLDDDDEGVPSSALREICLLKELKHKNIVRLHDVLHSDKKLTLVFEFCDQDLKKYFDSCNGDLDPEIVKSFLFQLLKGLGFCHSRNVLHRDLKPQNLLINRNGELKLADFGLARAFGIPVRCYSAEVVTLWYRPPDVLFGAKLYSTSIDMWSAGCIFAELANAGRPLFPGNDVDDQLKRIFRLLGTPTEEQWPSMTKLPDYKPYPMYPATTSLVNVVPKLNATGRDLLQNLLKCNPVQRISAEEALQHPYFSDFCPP
UniProt Q00534, whole entry: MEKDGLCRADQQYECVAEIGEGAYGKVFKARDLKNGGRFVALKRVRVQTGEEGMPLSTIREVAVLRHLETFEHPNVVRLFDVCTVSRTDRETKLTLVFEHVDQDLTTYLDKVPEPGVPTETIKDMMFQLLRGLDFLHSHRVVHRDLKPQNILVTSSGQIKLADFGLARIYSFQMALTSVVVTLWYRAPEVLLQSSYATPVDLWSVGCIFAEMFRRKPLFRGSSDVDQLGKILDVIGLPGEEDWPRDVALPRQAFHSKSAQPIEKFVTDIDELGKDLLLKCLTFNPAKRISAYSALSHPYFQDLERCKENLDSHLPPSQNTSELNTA
UniProt O96017, whole entry: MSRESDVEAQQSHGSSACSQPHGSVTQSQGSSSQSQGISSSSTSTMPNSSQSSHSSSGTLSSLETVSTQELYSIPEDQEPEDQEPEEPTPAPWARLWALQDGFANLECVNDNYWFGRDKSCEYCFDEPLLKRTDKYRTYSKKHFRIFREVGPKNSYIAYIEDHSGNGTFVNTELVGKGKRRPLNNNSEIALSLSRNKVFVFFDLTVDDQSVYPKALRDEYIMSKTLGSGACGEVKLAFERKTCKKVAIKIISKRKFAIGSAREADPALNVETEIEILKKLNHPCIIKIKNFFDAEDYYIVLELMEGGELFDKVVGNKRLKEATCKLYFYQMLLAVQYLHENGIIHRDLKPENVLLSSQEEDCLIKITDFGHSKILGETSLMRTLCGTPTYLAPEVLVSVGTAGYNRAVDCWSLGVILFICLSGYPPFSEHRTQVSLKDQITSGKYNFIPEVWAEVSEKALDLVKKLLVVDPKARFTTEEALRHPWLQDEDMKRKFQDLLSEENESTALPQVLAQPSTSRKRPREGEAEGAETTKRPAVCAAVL
UniProt P07333, whole entry: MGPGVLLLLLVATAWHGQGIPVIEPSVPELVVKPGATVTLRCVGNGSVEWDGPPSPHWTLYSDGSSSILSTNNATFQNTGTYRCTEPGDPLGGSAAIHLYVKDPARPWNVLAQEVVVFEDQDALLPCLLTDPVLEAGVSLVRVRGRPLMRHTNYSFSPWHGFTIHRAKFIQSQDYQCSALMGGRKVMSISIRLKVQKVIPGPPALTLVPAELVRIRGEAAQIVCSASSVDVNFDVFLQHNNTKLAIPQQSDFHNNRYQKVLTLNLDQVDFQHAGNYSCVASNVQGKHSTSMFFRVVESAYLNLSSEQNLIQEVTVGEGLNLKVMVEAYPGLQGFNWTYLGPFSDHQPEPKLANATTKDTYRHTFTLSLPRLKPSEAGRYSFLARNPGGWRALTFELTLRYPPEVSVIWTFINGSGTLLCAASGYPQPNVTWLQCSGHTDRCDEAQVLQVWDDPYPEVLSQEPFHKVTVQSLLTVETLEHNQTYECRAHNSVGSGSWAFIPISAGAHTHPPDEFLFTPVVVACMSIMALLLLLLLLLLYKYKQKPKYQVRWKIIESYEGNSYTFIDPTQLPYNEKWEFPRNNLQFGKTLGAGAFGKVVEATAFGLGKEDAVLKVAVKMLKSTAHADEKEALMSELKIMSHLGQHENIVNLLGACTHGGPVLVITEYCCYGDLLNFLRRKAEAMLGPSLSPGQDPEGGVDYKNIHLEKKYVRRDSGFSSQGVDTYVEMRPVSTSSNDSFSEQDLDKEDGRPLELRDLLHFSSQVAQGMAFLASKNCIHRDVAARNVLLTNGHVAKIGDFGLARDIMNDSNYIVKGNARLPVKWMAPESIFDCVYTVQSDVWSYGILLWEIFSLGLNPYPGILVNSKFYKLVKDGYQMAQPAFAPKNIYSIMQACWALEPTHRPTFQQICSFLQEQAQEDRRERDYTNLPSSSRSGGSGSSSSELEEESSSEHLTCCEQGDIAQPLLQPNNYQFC
UniProt P41240: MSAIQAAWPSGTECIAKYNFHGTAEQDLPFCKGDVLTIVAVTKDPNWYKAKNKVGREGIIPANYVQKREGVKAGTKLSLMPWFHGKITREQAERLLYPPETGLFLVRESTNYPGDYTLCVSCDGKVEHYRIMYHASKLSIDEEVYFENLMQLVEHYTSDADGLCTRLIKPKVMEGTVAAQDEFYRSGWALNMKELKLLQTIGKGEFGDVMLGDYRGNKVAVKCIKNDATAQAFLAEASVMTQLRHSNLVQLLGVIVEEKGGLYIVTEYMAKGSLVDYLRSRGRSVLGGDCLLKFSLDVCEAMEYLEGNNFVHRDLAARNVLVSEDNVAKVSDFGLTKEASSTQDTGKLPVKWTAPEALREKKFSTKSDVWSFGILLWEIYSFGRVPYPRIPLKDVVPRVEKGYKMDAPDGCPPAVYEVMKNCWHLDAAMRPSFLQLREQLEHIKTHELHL
UniProt P48729: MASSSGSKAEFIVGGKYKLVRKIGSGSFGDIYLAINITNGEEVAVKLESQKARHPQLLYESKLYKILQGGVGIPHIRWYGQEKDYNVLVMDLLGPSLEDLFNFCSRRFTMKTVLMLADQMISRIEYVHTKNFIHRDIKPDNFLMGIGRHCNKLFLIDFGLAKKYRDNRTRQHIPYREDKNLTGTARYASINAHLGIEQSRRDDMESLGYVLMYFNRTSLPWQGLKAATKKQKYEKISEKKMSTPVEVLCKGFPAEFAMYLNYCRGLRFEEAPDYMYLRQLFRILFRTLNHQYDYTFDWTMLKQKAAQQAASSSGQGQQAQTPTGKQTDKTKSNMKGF
UniProt P48730: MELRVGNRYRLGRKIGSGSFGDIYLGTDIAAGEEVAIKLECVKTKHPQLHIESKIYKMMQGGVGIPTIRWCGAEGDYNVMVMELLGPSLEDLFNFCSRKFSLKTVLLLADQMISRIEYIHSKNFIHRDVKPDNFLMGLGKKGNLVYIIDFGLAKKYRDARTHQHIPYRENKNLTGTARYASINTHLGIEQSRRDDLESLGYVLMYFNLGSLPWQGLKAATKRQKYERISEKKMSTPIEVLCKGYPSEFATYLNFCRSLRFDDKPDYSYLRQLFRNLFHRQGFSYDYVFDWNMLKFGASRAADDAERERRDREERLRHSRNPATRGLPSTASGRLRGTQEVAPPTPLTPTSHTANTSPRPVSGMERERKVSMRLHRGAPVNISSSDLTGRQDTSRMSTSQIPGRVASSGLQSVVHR
UniProt Q08345: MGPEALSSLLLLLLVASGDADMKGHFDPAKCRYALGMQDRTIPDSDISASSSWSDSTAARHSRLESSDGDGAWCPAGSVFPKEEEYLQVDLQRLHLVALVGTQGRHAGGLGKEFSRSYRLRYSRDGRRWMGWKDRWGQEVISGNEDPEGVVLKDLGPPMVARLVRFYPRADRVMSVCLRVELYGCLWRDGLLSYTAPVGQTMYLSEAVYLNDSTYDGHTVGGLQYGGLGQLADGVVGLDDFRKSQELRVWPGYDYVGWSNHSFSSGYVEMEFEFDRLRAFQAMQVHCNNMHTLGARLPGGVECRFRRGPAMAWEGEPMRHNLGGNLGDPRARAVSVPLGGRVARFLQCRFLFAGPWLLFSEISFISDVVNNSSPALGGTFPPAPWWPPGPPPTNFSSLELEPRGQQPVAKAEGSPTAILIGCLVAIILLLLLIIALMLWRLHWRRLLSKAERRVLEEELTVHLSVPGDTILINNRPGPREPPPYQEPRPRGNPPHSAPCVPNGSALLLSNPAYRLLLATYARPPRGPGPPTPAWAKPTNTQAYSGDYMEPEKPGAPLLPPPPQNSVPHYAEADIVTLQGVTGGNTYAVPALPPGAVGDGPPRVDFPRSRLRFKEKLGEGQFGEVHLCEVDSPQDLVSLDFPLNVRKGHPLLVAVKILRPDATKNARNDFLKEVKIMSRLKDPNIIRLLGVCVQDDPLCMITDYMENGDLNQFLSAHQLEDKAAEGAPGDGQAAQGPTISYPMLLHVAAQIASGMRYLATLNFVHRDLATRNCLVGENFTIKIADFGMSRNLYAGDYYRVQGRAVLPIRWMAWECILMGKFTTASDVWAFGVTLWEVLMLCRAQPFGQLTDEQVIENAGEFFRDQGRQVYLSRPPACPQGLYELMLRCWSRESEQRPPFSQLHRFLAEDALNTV
UniProt Q9Y463, whole entry, looked up: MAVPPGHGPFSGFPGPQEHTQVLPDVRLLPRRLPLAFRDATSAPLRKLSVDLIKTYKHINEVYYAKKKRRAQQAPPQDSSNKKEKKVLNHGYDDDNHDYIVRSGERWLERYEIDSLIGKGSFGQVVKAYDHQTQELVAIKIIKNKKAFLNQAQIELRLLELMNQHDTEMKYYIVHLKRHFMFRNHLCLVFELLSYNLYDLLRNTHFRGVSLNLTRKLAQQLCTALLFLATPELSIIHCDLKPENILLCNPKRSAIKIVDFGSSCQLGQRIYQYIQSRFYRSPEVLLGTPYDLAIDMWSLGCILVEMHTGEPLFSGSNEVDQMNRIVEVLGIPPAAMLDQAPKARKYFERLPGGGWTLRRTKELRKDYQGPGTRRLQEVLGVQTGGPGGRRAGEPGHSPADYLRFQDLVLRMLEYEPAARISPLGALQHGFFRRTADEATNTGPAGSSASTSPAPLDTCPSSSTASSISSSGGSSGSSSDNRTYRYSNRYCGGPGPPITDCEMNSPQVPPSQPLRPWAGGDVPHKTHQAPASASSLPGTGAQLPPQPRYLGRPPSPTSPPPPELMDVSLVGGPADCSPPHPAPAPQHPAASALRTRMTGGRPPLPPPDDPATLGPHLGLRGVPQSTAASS

Experiments:
Test in all cases: number of time points (of 5) at which kinase-Nluc abundance scored as decreased, DMSO-normalised (count); higher = more persistent destabilization
Settings in all cases: K562; 2-18 h
[1] = target: CAMK2A (UniProt Q9UQM7)
[2] = target: CAMK2G (UniProt Q13555)
[3] = target: CDK10 (UniProt Q15131)
[4] = target: CDK2 (UniProt P24941)
[5] = target: CDK3 (UniProt Q00526)
[6] = target: CDK5 (UniProt Q00535)
[7] = target: CDK6 (UniProt Q00534)
[8] = target: CHEK2 (UniProt O96017)
[9] = target: CSF1R (UniProt P07333)
[10] = target: CSK (UniProt P41240)
[11] = target: CSNK1A1 (UniProt P48729)
[12] = target: CSNK1D (UniProt P48730)
[13] = target: DDR1 (UniProt Q08345)
[14] = target: DYRK1B (UniProt Q9Y463)
[15] = target: DYRK2 (UniProt Q92630)
[16] = target: EGFR (UniProt P00533)
[17] = target: EGFR_G719S (UniProt P00533)
[18] = target: EGFR_G719S_T790M (UniProt P00533)
[19] = target: EGFR_L718V (UniProt P00533)
[20] = target: EGFR_L858R (UniProt P00533)

Row | SMILES | number of time points [1] | number of time points [2] | number of time points [3] | number of time points [4] | number of time points [5] | number of time points [6] | number of time points [7] | number of time points [8] | number of time points [9] | number of time points [10] | number of time points [11] | number of time points [12] | number of time points [13] | number of time points [14] | number of time points [15] | number of time points [16] | number of time points [17] | number of time points [18] | number of time points [19] | number of time points [20]
1 | CCN(CC)CCCCNc1ncc2cc(-c3cc(OC)cc(OC)c3)c(NC(=O)NC(C)(C)C)nc2n1 (10 µM) | 0 | 0 | 0 | 0 | 0 | 0 | 0 | 0 | 0 | 0 | 0 | 0 | 0 | 0 | 0 | – | – | – | – | –
2 | COc1ccc(C=C(C#N)c2cccnc2)cc1OC (10 µM) | 0 | 0 | 0 | 0 | 0 | 0 | 0 | 0 | 0 | 0 | 0 | 0 | 0 | 0 | 0 | – | – | – | – | –
3 | CC(C)CC(=O)Nc1n[nH]c2c1CN(C(=O)C1CCN(C)CC1)C2(C)C (2.5 µM) | 0 | 0 | 0 | 0 | 0 | 1 | 0 | 0 | 0 | 0 | 0 | 0 | 1 | 0 | 0 | – | – | – | – | –
4 | COc1cc(C=C(C#N)C(N)=O)cc(CSc2nc3ccccc3s2)c1O (10 µM) | 0 | 0 | 0 | 0 | 0 | 0 | 0 | 0 | 0 | 0 | 0 | 0 | 1 | 0 | 0 | – | – | – | – | –
5 | CCOc1ccn(-c2ccc(F)cc2)c(=O)c1C(=O)Nc1ccc(Oc2ccnc(N)c2Cl)c(F)c1 (10 µM) | 0 | 0 | 0 | 0 | 0 | 0 | 0 | 1 | 1 | 0 | 0 | 0 | 1 | 1 | 4 | – | – | – | – | –
6 | COc1cc(C)c(Sc2cnc(NC(=O)c3ccc(CNC(C)C(C)(C)C)cc3)s2)cc1C(=O)N1CCN(C(C)=O)CC1 (stereo not given) (2.5 µM) | 0 | 0 | 0 | 0 | 0 | 0 | 0 | 0 | 0 | 0 | 0 | 0 | 0 | 0 | 0 | – | – | – | – | –
7 | O=c1cc(N2CCOCC2)oc2c(-c3ccccc3)cccc12 (10 µM) | 0 | 0 | 0 | 0 | 0 | 0 | 0 | 0 | 0 | 0 | 0 | 0 | 0 | 0 | 0 | – | – | – | – | –
8 | Cc1c[nH]c2nccc(Oc3c(F)cc(Nc4cc(Cl)nc(N)n4)cc3F)c12 (10 µM) | 0 | 1 | 0 | 0 | 0 | 0 | 0 | 0 | 0 | 0 | 0 | 0 | 0 | 0 | 1 | – | – | – | – | –
9 | COc1cc2nc(C)nc(N[C@H](C)c3cc(N)cc(C(F)(F)F)c3)c2cc1O[C@H]1CCOC1 (10 µM) | 0 | 0 | 0 | 0 | 0 | 0 | 0 | 0 | 0 | 0 | 0 | 0 | 0 | 0 | 0 | – | – | – | – | –
10 | N#C/C(=C\c1ccc(O)c(O)c1)C(=O)NCCCc1ccccc1 (10 µM) | 0 | 0 | 0 | 0 | 0 | 0 | 0 | 0 | 0 | 0 | 0 | 0 | 0 | 0 | 0 | – | – | – | – | –
11 | CCC(=O)N1CCN(c2ccc(-n3c(=O)ccc4cnc5ccc(-c6cnc7ccccc7c6)cc5c43)cc2C(F)(F)F)CC1 [Torin 1] (2 µM) | 0 | 0 | 0 | 0 | 0 | 0 | 0 | 0 | 0 | 0 | 0 | 0 | 1 | 0 | 3 | 0 | 0 | 0 | 0 | 0
12 | CN1CCN(S(=O)(=O)c2ccc(-c3cnc(N)c(C(=O)Nc4cccnc4)n3)cc2)CC1 (10 µM) | 0 | 0 | 0 | 0 | 0 | 0 | 0 | 0 | 0 | 0 | 0 | 0 | 0 | 0 | 0 | 0 | 0 | 0 | 0 | 0
13 | CN1CCN(C2CCN(C(=O)Nc3cc(Oc4ccc(NC(=O)C5(C(=O)Nc6ccc(F)cc6)CC5)c(F)c4)ccn3)CC2)CC1 [Golvatinib] (2.5 µM) | 0 | 0 | 0 | 0 | 0 | 0 | 0 | 0 | 0 | 0 | 0 | 0 | 2 | 0 | 4 | 0 | 2 | 0 | 0 | 0
14 | Cc1ccc(S(=O)(=O)Nc2nc3ccccc3nc2Nc2ccc3nsnc3c2)cc1 [Pilaralisib analogue] (10 µM) | 0 | 0 | 5 | 0 | 0 | 0 | 0 | 0 | 0 | 0 | 0 | 0 | 0 | 0 | 5 | 0 | 0 | 0 | 0 | 5
15 | CCN1C(=O)N(c2c(F)c(OC)cc(OC)c2F)Cc2cnc3[nH]c(CN4CCOCC4)cc3c21 [Pemigatinib] (10 µM) | 0 | 0 | 0 | 0 | 0 | 0 | 0 | 0 | 0 | 0 | 0 | 0 | 0 | 0 | 0 | 0 | 0 | 0 | 0 | 0
16 | O=C1Nc2ccccc2/C1=C/c1ccc(F)cc1 (10 µM) | 0 | 0 | 0 | 0 | 0 | 0 | 0 | 0 | 0 | 0 | 0 | 0 | 0 | 0 | 0 | 0 | 0 | 0 | 0 | 0
17 | Oc1cc(O)cc(/C=C/c2ccc(O)c(O)c2)c1 [Piceatannol] (10 µM) | 0 | 2 | 1 | 0 | 0 | 0 | 0 | 3 | 3 | 0 | 3 | 0 | 3 | 3 | 4 | 0 | 3 | 3 | 3 | 3
18 | COC(=O)c1ccc2c(C(=Nc3ccc(N(C)C(=O)CN4CCN(C)CC4)cc3)c3ccccc3)c(O)[nH]c2c1 [Nintedanib] (2.5 µM) | 0 | 0 | 0 | 0 | 0 | 0 | 0 | 0 | 0 | 0 | 0 | 0 | 1 | 0 | 0 | 0 | 0 | 0 | 0 | 0
19 | C=CC(=O)Nc1cccc(Nc2nc(Nc3ccc(OCCOC)cc3)ncc2F)c1 [Spebrutinib] (10 µM) | 0 | 0 | 0 | 0 | 0 | 0 | 0 | 0 | 0 | 0 | 0 | 0 | 0 | 0 | 0 | 0 | 0 | 0 | 0 | 0
20 | Cc1cc(C(=O)Nc2cccc(C(=O)Nc3cccc(C(F)(F)F)c3)c2)on1 (10 µM) | 0 | 0 | 0 | 0 | 0 | 0 | 0 | 0 | 0 | 0 | 0 | 0 | 0 | 0 | 0 | 0 | 0 | 0 | 0 | 0
21 | C=CC(=O)N[C@H]1COC[C@H]1Nc1ncc2cc(-c3c(Cl)c(OC)cc(OC)c3Cl)c(=O)n(C)c2n1 (10 µM) | 0 | 0 | 0 | 0 | 0 | 0 | 0 | 0 | 0 | 0 | 0 | 0 | 0 | 0 | 0 | 0 | 0 | 0 | 0 | 0
22 | C=CC(=O)N1C[C@H](Nc2ncnc3[nH]ccc23)CC[C@@H]1C [Ritlecitinib] (10 µM) | 0 | 0 | 0 | 0 | 0 | 0 | 0 | 0 | 0 | 0 | 0 | 0 | 0 | 0 | 0 | 0 | 0 | 0 | 0 | 0
23 | Cn1nc(C(C)(C)C)cc1NC(=O)Nc1ccc(Oc2ccncc2)cc1 (10 µM) | 0 | 0 | 0 | 0 | 0 | 0 | 0 | 0 | 1 | 0 | 0 | 0 | 3 | 0 | 4 | 0 | 0 | 3 | 0 | 0
24 | COc1cc(C(=O)NC2CCN(C)CC2)ccc1Nc1ncc2c(n1)N(C1CCCC1)CC(F)(F)C(=O)N2C (10 µM) | 0 | 0 | 0 | 0 | 0 | 0 | 0 | 0 | 0 | 0 | 0 | 0 | 0 | 0 | 0 | 1 | 3 | 1 | 0 | 0
25 | CC(C)(C)S(=O)(=O)c1cc2c(Nc3ccc4scnc4c3)ncnc2cc1OCCO (2.5 µM) | 0 | 0 | 0 | 0 | 0 | 0 | 0 | 0 | 0 | 0 | 0 | 0 | 0 | 0 | 0 | 0 | 0 | 0 | 0 | 0
26 | COCc1c(-c2ccc(NC(=O)Nc3cc(C(F)(F)F)ccc3F)c(F)c2)c2c(N)ncnn2c1CN1CCOCC1 (2.5 µM) | 0 | 0 | 0 | 0 | 0 | 0 | 0 | 0 | 0 | 0 | 0 | 0 | 0 | 0 | 0 | 0 | 0 | 0 | 0 | 0

Reformatted as comma-separated lines: entries from further up
Row,SMILES,number of time points [1],number of time points [2],number of time points [3],number of time points [4],number of time points [5],number of time points [6],number of time points [7],number of time points [8],number of time points [9],number of time points [10],number of time points [11],number of time points [12],number of time points [13],number of time points [14],number of time points [15],number of time points [16],number of time points [17],number of time points [18],number of time points [19],number of time points [20]
7,O=c1cc(N2CCOCC2)oc2c(-c3ccccc3)cccc12 (10 µM),0,0,0,0,0,0,0,0,0,0,0,0,0,0,0,–,–,–,–,–
8,Cc1c[nH]c2nccc(Oc3c(F)cc(Nc4cc(Cl)nc(N)n4)cc3F)c12 (10 µM),0,1,0,0,0,0,0,0,0,0,0,0,0,0,1,–,–,–,–,–
